From publication PMC10763615 (RSC Chemical Biology, 2023)
End groups of sequences in plain letters are not given here. HELM strings list residues between dots; [ac] is acetyl, [am] amide, other brackets name non-standard units.

How the values were obtained:
[1] = general procedure: Fmoc solid-phase peptide synthesis; Fmoc-PAL AM resin (Novabiochem) pre-loaded with GSGSDYKDDDDK-NH2; DIC / Oxyma / collidine; conditions: whole synthesis, analytical HPLC/UPLC
[2] = peptide made by a vendor (Fmoc solid-phase peptide synthesis; Fmoc-PAL AM resin (Novabiochem) pre-loaded with GSGSDYKDDDDK-NH2; DIC / Oxyma / collidine); conditions: whole synthesis, analytical HPLC/UPLC
[3] = one disulfide bridge, sequence written open

| Substance | crude HPLC purity [1] [%] | also measured |
| --- | --- | --- |
| MCKHLYYYLLWKKC |  | crude HPLC purity [1, 3]: 47.42%; final HPLC purity [2, 3]: 88.75% |
| PEPTIDE1{[ac].M.C.D.K.Y.W.V.K.Y.W.I.A.W.R.C.G.S.G.S.D.Y.K.D.D.D.D.K.[am]}$PEPTIDE1,PEPTIDE1,3:R3-16:R3$$$V2.0 |  | final HPLC purity [2]: 88.62% |
| PEPTIDE1{[ac].M.C.E.H.L.Y.Y.Y.L.L.S.H.R.R.C.G.S.G.S.D.Y.K.D.D.D.D.K.[am]}$PEPTIDE1,PEPTIDE1,3:R3-16:R3$$$V2.0 |  | final HPLC purity [2]: 85.17% |
| PEPTIDE1{[ac].M.C.E.N.K.K.V.L.F.Y.Y.L.L.W.C.G.S.G.S.D.Y.K.D.D.D.D.K.[am]}$PEPTIDE1,PEPTIDE1,3:R3-16:R3$$$V2.0 |  | final HPLC purity [2]: 85.09% |
| PEPTIDE1{[ac].M.C.E.R.E.V.L.Y.W.L.L.V.T.C.G.S.G.S.D.Y.K.D.D.D.D.K.[am]}$PEPTIDE1,PEPTIDE1,3:R3-15:R3$$$V2.0 | 54.53 | final HPLC purity [2]: 85.07% |
| PEPTIDE1{[ac].M.C.E.S.D.A.Y.R.W.K.L.W.W.V.C.G.S.G.S.D.Y.K.D.D.D.D.K.[am]}$PEPTIDE1,PEPTIDE1,3:R3-16:R3$$$V2.0 | 59.42 | final HPLC purity [2]: 86.50% |
| PEPTIDE1{[ac].M.C.F.W.K.K.L.H.V.F.W.V.K.D.C.G.S.G.S.D.Y.K.D.D.D.D.K.[am]}$PEPTIDE1,PEPTIDE1,3:R3-16:R3$$$V2.0 |  | final HPLC purity [2]: 95.71% |
| PEPTIDE1{[ac].M.C.N.D.L.F.Y.Y.L.L.W.R.K.A.C.G.S.G.S.D.Y.K.D.D.D.D.K.[am]}$PEPTIDE1,PEPTIDE1,3:R3-16:R3$$$V2.0 |  | final HPLC purity [2]: 86.11% |
| PEPTIDE1{[ac].M.C.N.K.H.L.Y.Y.Y.L.L.F.K.Q.C.G.S.G.S.D.Y.K.D.D.D.D.K.[am]}$PEPTIDE1,PEPTIDE1,3:R3-16:R3$$$V2.0 |  | final HPLC purity [2]: 92.86% |
| PEPTIDE1{[ac].M.C.N.V.L.L.Y.K.D.L.R.H.C.G.S.G.S.D.Y.K.D.D.D.D.K.[am]}$PEPTIDE1,PEPTIDE1,3:R3-14:R3$$$V2.0 | 65.14 | final HPLC purity [2]: 86.47% |
| PEPTIDE1{[ac].M.C.N.V.L.L.Y.K.V.L.R.H.C.G.S.G.S.D.Y.K.D.D.D.D.K.[am]}$PEPTIDE1,PEPTIDE1,3:R3-14:R3$$$V2.0 | 78.00 | final HPLC purity [2]: 86.88% |
| PEPTIDE1{[ac].M.C.R.E.L.L.Y.Y.L.L.Q.R.C.G.S.G.S.D.Y.K.D.D.D.D.K.[am]}$PEPTIDE1,PEPTIDE1,3:R3-14:R3$$$V2.0 | 57.23 |  |
| PEPTIDE1{[ac].M.C.R.H.L.F.Y.W.K.L.W.H.Q.R.C.G.S.G.S.E.E.G.S.G.S.D.Y.K.D.D.D.D.K.[am]}$PEPTIDE1,PEPTIDE1,3:R3-16:R3$$$V2.0 | 42.58 |  |
| PEPTIDE1{[ac].M.C.R.W.V.K.Y.Y.Q.L.V.H.R.K.C.G.S.G.S.D.Y.K.D.D.D.D.K.[am]}$PEPTIDE1,PEPTIDE1,3:R3-16:R3$$$V2.0 | 47.25 |  |
| PEPTIDE1{[ac].M.C.S.H.C.W.L.F.K.V.L.L.M.G.S.G.S.D.Y.K.D.D.D.D.K.[am]}$PEPTIDE1,PEPTIDE1,3:R3-6:R3$$$V2.0 | 60.15 |  |
| PEPTIDE1{[ac].M.C.S.I.L.L.Y.K.V.L.S.Q.C.G.S.G.S.D.Y.K.D.D.D.D.K.[am]}$PEPTIDE1,PEPTIDE1,3:R3-14:R3$$$V2.0 | 82.97 |  |
| PEPTIDE1{[ac].M.C.S.I.L.L.Y.K.V.L.S.R.C.G.S.G.S.D.Y.K.D.D.D.D.K.[am]}$PEPTIDE1,PEPTIDE1,3:R3-14:R3$$$V2.0 | 47.44 |  |
| PEPTIDE1{[ac].M.C.S.I.L.W.Y.K.I.T.K.P.L.C.G.S.G.S.D.Y.K.D.D.D.D.K.[am]}$PEPTIDE1,PEPTIDE1,3:R3-15:R3$$$V2.0 | 41.72 |  |
| PEPTIDE1{[ac].M.C.S.N.M.W.K.L.A.N.R.W.W.A.C.G.S.G.S.D.Y.K.D.D.D.D.K.[am]}$PEPTIDE1,PEPTIDE1,3:R3-16:R3$$$V2.0 | 68.53 |  |
| PEPTIDE1{[ac].M.C.T.G.R.H.L.Y.Y.W.K.L.F.H.C.G.S.G.S.E.E.G.S.G.S.D.Y.K.D.D.D.D.K.[am]}$PEPTIDE1,PEPTIDE1,3:R3-16:R3$$$V2.0 | 52.99 |  |
| PEPTIDE1{[ac].M.C.T.H.R.H.P.Y.E.T.L.W.H.Q.C.G.S.G.S.D.Y.K.D.D.D.D.K.[am]}$PEPTIDE1,PEPTIDE1,3:R3-16:R3$$$V2.0 | 73.30 |  |
| PEPTIDE1{[ac].M.C.T.T.L.Y.Y.Y.K.L.W.R.R.C.G.S.G.S.E.E.G.S.G.S.D.Y.K.D.D.D.D.K.[am]}$PEPTIDE1,PEPTIDE1,3:R3-15:R3$$$V2.0 | 77.24 | final HPLC purity [2]: 85.19% |
| PEPTIDE1{[ac].M.C.T.Y.D.F.V.L.G.H.H.Y.L.I.C.G.S.G.S.D.Y.K.D.D.D.D.K.[am]}$PEPTIDE1,PEPTIDE1,3:R3-16:R3$$$V2.0 | 36.61 |  |
| PEPTIDE1{[ac].M.C.T.Y.E.F.L.F.E.E.L.Y.L.H.C.G.S.G.S.D.Y.K.D.D.D.D.K.[am]}$PEPTIDE1,PEPTIDE1,3:R3-16:R3$$$V2.0 | 58.48 |  |
| PEPTIDE1{[ac].M.C.T.Y.V.Y.Y.Y.K.L.F.H.R.C.G.S.G.S.D.Y.K.D.D.D.D.K.[am]}$PEPTIDE1,PEPTIDE1,3:R3-15:R3$$$V2.0 | 30.34 |  |

| Substance | crude HPLC purity [1] [%] | also measured |
| --- | --- | --- |
| PEPTIDE1{[ac].M.C.V.K.Y.I.K.Y.W.S.V.F.H.C.G.S.G.S.D.Y.K.D.D.D.D.K.[am]}$PEPTIDE1,PEPTIDE1,3:R3-15:R3$$$V2.0 | 54.15 |  |
| PEPTIDE1{[ac].M.C.V.T.W.Y.K.V.T.K.L.R.C.G.S.G.S.D.Y.K.D.D.D.D.K.[am]}$PEPTIDE1,PEPTIDE1,3:R3-14:R3$$$V2.0 |  | final HPLC purity [1]: 89.4% |
| PEPTIDE1{[ac].M.C.V.W.K.Y.R.L.D.R.N.W.Y.C.G.S.G.S.D.Y.K.D.D.D.D.K.[am]}$PEPTIDE1,PEPTIDE1,3:R3-15:R3$$$V2.0 | 29.62 |  |
| PEPTIDE1{[ac].M.C.V.W.Q.Y.S.H.H.Y.N.W.H.C.G.S.G.S.D.Y.K.D.D.D.D.K.[am]}$PEPTIDE1,PEPTIDE1,3:R3-15:R3$$$V2.0 | 39.17 |  |
| PEPTIDE1{[ac].M.C.V.W.W.S.H.P.S.I.W.I.C.G.S.G.S.D.Y.K.D.D.D.D.K.[am]}$PEPTIDE1,PEPTIDE1,3:R3-14:R3$$$V2.0 | 31.04 |  |
| PEPTIDE1{[ac].M.C.W.S.K.L.I.I.K.Y.Y.L.S.Q.C.G.S.G.S.D.Y.K.D.D.D.D.K.[am]}$PEPTIDE1,PEPTIDE1,3:R3-16:R3$$$V2.0 | 11.27 |  |
| PEPTIDE1{[ac].M.C.W.W.F.K.Q.H.E.F.W.F.K.V.C.G.S.G.S.D.Y.K.D.D.D.D.K.[am]}$PEPTIDE1,PEPTIDE1,3:R3-16:R3$$$V2.0 | 34.21 |  |
| PEPTIDE1{[ac].M.C.W.Y.D.Q.H.S.F.Y.W.E.R.L.C.G.S.G.S.D.Y.K.D.D.D.D.K.[am]}$PEPTIDE1,PEPTIDE1,3:R3-16:R3$$$V2.0 | 58.39 |  |
| PEPTIDE1{[ac].M.C.Y.D.I.V.F.D.Y.I.T.V.Y.H.C.G.S.G.S.D.Y.K.D.D.D.D.K.[am]}$PEPTIDE1,PEPTIDE1,3:R3-16:R3$$$V2.0 | 46.75 |  |
| PEPTIDE1{[ac].M.C.Y.E.D.E.I.W.L.Y.K.V.L.Y.C.G.S.G.S.D.Y.K.D.D.D.D.K.[am]}$PEPTIDE1,PEPTIDE1,3:R3-16:R3$$$V2.0 | 28.19 |  |
| PEPTIDE1{[ac].M.C.Y.E.I.I.W.Y.K.L.Q.R.V.C.G.S.G.S.D.Y.K.D.D.D.D.K.[am]}$PEPTIDE1,PEPTIDE1,3:R3-15:R3$$$V2.0 | 42.02 |  |
| PEPTIDE1{[ac].M.C.Y.H.R.P.P.N.S.K.I.W.R.K.C.G.S.G.S.D.Y.K.D.D.D.D.K.[am]}$PEPTIDE1,PEPTIDE1,3:R3-16:R3$$$V2.0 | 71.65 | final HPLC purity [2]: 88.36% |
| PEPTIDE1{[ac].M.C.Y.K.H.I.L.W.Y.K.I.Q.K.L.C.G.S.G.S.E.E.G.S.G.S.D.Y.K.D.D.D.D.K.[am]}$PEPTIDE1,PEPTIDE1,3:R3-16:R3$$$V2.0 | 89.29 |  |
| PEPTIDE1{[ac].M.C.Y.K.N.I.D.N.G.V.L.V.F.C.G.S.G.S.D.Y.K.D.D.D.D.K.[am]}$PEPTIDE1,PEPTIDE1,3:R3-15:R3$$$V2.0 | 65.58 |  |
| PEPTIDE1{[ac].M.C.Y.K.N.I.S.T.G.I.F.L.Y.C.G.S.G.S.D.Y.K.D.D.D.D.K.[am]}$PEPTIDE1,PEPTIDE1,3:R3-15:R3$$$V2.0 | 70.25 |  |
| PEPTIDE1{[ac].M.C.Y.K.Y.S.K.D.L.W.L.Y.R.L.W.C.G.S.G.S.D.Y.K.D.D.D.D.K.[am]}$PEPTIDE1,PEPTIDE1,3:R3-17:R3$$$V2.0 | 38.33 |  |
| PEPTIDE1{[ac].M.C.Y.N.I.Y.W.Y.K.Y.V.R.R.E.C.G.S.G.S.D.Y.K.D.D.D.D.K.[am]}$PEPTIDE1,PEPTIDE1,3:R3-16:R3$$$V2.0 | 44.06 |  |
| PEPTIDE1{[ac].M.C.Y.N.K.F.I.T.L.Y.K.V.L.Y.C.G.S.G.S.D.Y.K.D.D.D.D.K.[am]}$PEPTIDE1,PEPTIDE1,3:R3-16:R3$$$V2.0 |  | final HPLC purity [2]: 85.53% |
| PEPTIDE1{[ac].M.C.Y.R.F.P.S.S.H.L.F.W.A.C.G.S.G.S.D.Y.K.D.D.D.D.K.[am]}$PEPTIDE1,PEPTIDE1,3:R3-15:R3$$$V2.0 | 50.17 |  |
| PEPTIDE1{[ac].M.C.Y.T.K.A.Y.W.H.E.P.W.R.P.C.G.S.G.S.D.Y.K.D.D.D.D.K.[am]}$PEPTIDE1,PEPTIDE1,3:R3-16:R3$$$V2.0 |  | final HPLC purity [2]: 92.50% |
| PEPTIDE1{[ac].M.C.Y.T.R.F.W.T.E.E.W.Q.P.C.G.S.G.S.D.Y.K.D.D.D.D.K.[am]}$PEPTIDE1,PEPTIDE1,3:R3-15:R3$$$V2.0 | 29.58 |  |
| PEPTIDE1{[ac].M.C.Y.T.R.H.P.Y.E.A.L.W.H.Q.C.G.S.G.S.D.Y.K.D.D.D.D.K.[am]}$PEPTIDE1,PEPTIDE1,3:R3-16:R3$$$V2.0 | 64.78 |  |
| PEPTIDE1{[ac].M.C.Y.T.V.L.W.Y.K.Y.Q.K.K.C.G.S.G.S.E.E.G.S.G.S.D.Y.K.D.D.D.D.K.[am]}$PEPTIDE1,PEPTIDE1,3:R3-15:R3$$$V2.0 | 50.47 |  |
| PEPTIDE1{[ac].M.C.Y.Y.N.F.L.N.K.V.L.V.Y.C.G.S.G.S.D.Y.K.D.D.D.D.K.[am]}$PEPTIDE1,PEPTIDE1,3:R3-15:R3$$$V2.0 | 62.65 |  |
| PEPTIDE1{[ac].M.M.S.H.C.W.L.F.K.V.L.L.C.G.S.G.S.D.Y.K.D.D.D.D.K.[am]}$PEPTIDE1,PEPTIDE1,6:R3-14:R3$$$V2.0 | 67.7 |  |
